Values from PubChem BioAssay AID652243 (Drosophila RNAi Screening Center, 2013)
The deposit covers about 24,000 reagents; shown is an unselected part of those that have a named target and a result. Of all reagents, 246 (1%) got an active call. 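Plates not normalised; calls are printed but the firefly/Renilla ratio behind them is not deposited; fold cut for lowering reported inconsistently.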 Raw values are not corrected between plates. Names joined by + are all predicted targets of the reagent. The record does not give: the amount of reagent.

- Purpose: 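Knock-downs that decrease or increase androgen receptor reporter signal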 (primary screen)
- Cells: Drosophila S2R+ cells
- Reagents: long dsRNA against Drosophila genes
- Duration: 72 h (48 h, then 24 h hormone)
- Conditions: synthetic androgen R1881 at 10 nM for 24 h
- Read-out: 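Firefly light from an androgen-responsive reporter and Renilla control light per well, raw and unnormalised, for each of two replicates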
- Scale: firefly reporter light: higher = more light from androgen-responsive reporter; Renilla control light: higher = more constitutive control signal (cell number, transfection)
- Active means: 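Across duplicate plates, a knock-down whose log firefly/Renilla ratio shifted a set fold down or up from the GFP/LacZ control mean was a hit; the downward cut appears as both 1.5 and 3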
- Meaning of the calls: active = hit: reporter lowered or raised; inactive = no hit

gene knocked down | amplicon | firefly reporter light, replicate 1 | firefly reporter light, replicate 2 | Renilla control light, replicate 1 | Renilla control light, replicate 2 | activity call
CG10919 | DRSC14283 | 93239 | 1.12e5 | 2.35e6 | 2.17e6 | inactive
COX7A | DRSC16514 | 1.27e5 | 1.32e5 | 2.25e6 | 1.83e6 | inactive
CG33158 | DRSC09708 | 4.75e5 | 6.01e5 | 2.79e6 | 4.63e6 | inactive
CG33158 | DRSC09709 | 2.73e5 | 3.09e5 | 2.59e6 | 2.05e6 | inactive
CG33158 | DRSC10438 | 2.40e5 | 1.91e5 | 1.95e6 | 1.49e6 | inactive
ab | DRSC01162 | 7397 | 8797 | 43922 | 50951 | inactive
ab | DRSC23151 | 9.07e5 | 1.17e6 | 1.03e6 | 1.25e6 | inactive
ab | DRSC23179 | 2.09e6 | 1.58e6 | 2.33e6 | 1.93e6 | inactive
ArfGAP3 | DRSC11794 | 33948 | 56548 | 4.74e5 | 5.08e5 | inactive
ArfGAP3 | DRSC25639 | 5.95e5 | 8.13e5 | 7.75e5 | 8.11e5 | inactive
CG42353 + CG42354 | DRSC23154 | 6.49e5 | 7.89e5 | 1.93e6 | 1.76e6 | inactive
CG42353 + CG42354 | DRSC29165 | 4.62e5 | 4.72e5 | 1.67e6 | 1.57e6 | inactive
Sdr | DRSC15517 | 77647 | 1.04e5 | 5.35e5 | 4.30e5 | inactive
Sdr | DRSC36929 | – | – | – | – | inactive
Sdr | DRSC36930 | – | – | – | – | inactive
Nup75 | DRSC06947 | 9.88e5 | 8.17e5 | 2.18e6 | 1.92e6 | inactive
Nup75 | DRSC28056 | 4.36e5 | 3.00e5 | 1.63e6 | 1.52e6 | inactive
lncRNA:CR40629 | DRSC38772 | 9.22e5 | 7.35e5 | 1.85e6 | 1.61e6 | inactive
rau | DRSC03125 | 6.56e5 | 1.00e6 | 1.61e6 | 1.61e6 | inactive
rau | DRSC29748 | 3.35e5 | 3.44e5 | 1.28e6 | 1.19e6 | inactive
GluProRS | DRSC14095 | 74799 | 92155 | 7.22e5 | 5.74e5 | inactive
Ctu1 | DRSC07069 | 1.48e5 | 1.09e5 | 1.28e6 | 8.28e5 | active
AlkB | DRSC19115 | 3.18e5 | 3.36e5 | 2.25e5 | 2.73e5 | inactive
l(3)76BDm | DRSC11047 | 31578 | 29304 | 3.16e5 | 2.65e5 | inactive
Nckx30C | DRSC02686 | 2.56e5 | 1.96e5 | 1.74e6 | 1.36e6 | inactive
Nckx30C | DRSC02687 | 3.20e5 | 2.17e5 | 2.56e6 | 1.76e6 | inactive
Nckx30C | DRSC02688 | 1.53e5 | 1.20e5 | 1.47e6 | 1.52e6 | inactive
Nckx30C | DRSC02689 | 1.09e5 | 71301 | 1.09e6 | 9.54e5 | inactive
CG6985 | DRSC16164 | 87088 | 96959 | 1.07e6 | 1.09e6 | inactive
CG6985 | DRSC24923 | 7.22e5 | 8.65e5 | 8.28e5 | 9.16e5 | inactive
sesB | DRSC20371 | 3.10e5 | 3.34e5 | 3.34e6 | 3.19e6 | inactive
sesB | DRSC29874 | 1.09e6 | 1.24e6 | 1.29e6 | 1.91e6 | inactive
Idgf1 | DRSC03349 | 1.22e6 | 1.09e6 | 1.83e6 | 2.05e6 | inactive
Idgf1 | DRSC26045 | 2.77e5 | 3.14e5 | 7.77e5 | 7.32e5 | inactive
CG7600 | DRSC09681 | 4.97e5 | 3.31e5 | 1.51e6 | 1.21e6 | inactive
CG7600 | DRSC25328 | 6.14e5 | 8.33e5 | 6.79e5 | 9.16e5 | inactive
COX7AL2 | DRSC38937 | 7.69e5 | 6.49e5 | 1.83e6 | 1.95e6 | inactive
p-cup | DRSC19513 | 3.36e5 | 2.97e5 | 3.48e6 | 3.34e6 | inactive
Mlp84B | DRSC12596 | 37250 | 52271 | 1.32e6 | 1.19e6 | inactive
CG12983 | DRSC11692 | 2.37e5 | 2.75e5 | 2.21e6 | 2.06e6 | inactive
CG31697 | DRSC22273 | 7.53e5 | 6.91e5 | 2.32e6 | 1.75e6 | inactive
pen-2 | DRSC05722 | 3.81e5 | 4.57e5 | 9.16e5 | 1.60e5 | inactive
sordd1 | DRSC28653 | 5.43e5 | 4.12e5 | 9.93e5 | 1.19e6 | inactive
insc | DRSC04695 | 2.06e5 | 2.52e5 | 1.93e6 | 2.09e6 | inactive
CG10467 + CG10469 | DRSC28645 | 3.86e5 | 3.82e5 | 1.29e6 | 1.26e6 | inactive
Usp39 | DRSC20032 | 1.05e5 | 1.02e5 | 6.98e5 | 8.43e5 | inactive
Usp39 | DRSC29836 | 4.06e5 | 3.99e5 | 1.66e6 | 1.61e6 | inactive
Rpn12R | DRSC09842 | 1.65e5 | 1.47e5 | 1.97e6 | 1.19e6 | inactive
Atf3 | DRSC22996 | 8.03e5 | 9.67e5 | 1.26e6 | 1.61e6 | inactive
CG9899 | DRSC04597 | 3.06e5 | 3.17e5 | 2.45e6 | 1.72e6 | inactive
CG14005 | DRSC02337 | 6.97e5 | 7.36e5 | 1.80e6 | 1.56e6 | inactive
CR32745 | DRSC17442 | 6.23e5 | 8.34e5 | 1.29e6 | 1.36e6 | inactive
CR32745 | DRSC29689 | 8.79e5 | 7.21e5 | 1.59e6 | 1.42e6 | inactive
CG14499 | DRSC06470 | 70116 | 1.08e5 | 1.40e6 | 1.40e6 | inactive
CG7714 | DRSC16300 | 4.22e5 | 3.65e5 | 3.95e6 | 4.31e6 | inactive
CG7714 | DRSC24753 | 1.54e6 | 1.38e6 | 1.42e6 | 1.11e6 | inactive
Oatp58Da | DRSC04365 | 2.72e5 | 3.07e5 | 2.27e6 | 1.91e6 | inactive
Oatp58Da | DRSC25499 | 5.65e5 | 4.68e5 | 4.76e5 | 3.52e5 | inactive
